The nature of the data set: peptide synthesis. The note with it: for conjugation yield: conjugation step; for final HPLC purity: HPLC method B.

In the case of “2-Amino-N-({[({[({2-[(1S,2S,4R,8S,9S,11S,12S,13R)-11-hydroxy-9,13-dimethyl-16-oxo-6-propyl-5,7-dioxapentacyclo[10.8.0.0^2,9.0^4,8.0^13,18]icosa-14,17-dien-8-yl]-2-oxoethoxy}methyl)carbamoyl]methyl}carbamoyl)methyl]carbamoyl}methyl)acetamide”, the conjugation yield turned out to be 39% yield. Take COT-KGGGG-NHCH2-Bud: the “final HPLC purity” value turned out to be 99%. The conjugation yield (from L-14a) was 76% yield from L-14a. Take COT-SGGGG-NHCH2-Bud: the “final HPLC purity” value amounted to 98%. Besides, where the note is “from L-14a”, the conjugation yield was determined as 14% yield from L-14a.
